# Screen size: about 340,000 compounds; about 170 (0.05%) were called active. The shares of active, inactive and inconclusive entries below differ from those in the screen. The call rests on the fitted dose curve; in most records, active means well fitted inhibition curve with a large enough effect in the signal ratio, with a control signal flat (not every such curve was filed as active); inconclusive means small, poorly fitted or top-dose-only effect, or effect the other way, or a change in a side signal; inactive means flat fitted curve, though single readings scatter; the % refers to the signal ratio. A potency beside an inconclusive call is a rough fit, not a confirmed value.
# Assay: qHTS Assay to Find Inhibitors of Chronic Active B-Cell Receptor Signaling;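 on activity change, negative = inhibition: plate controls were basal doxycycline-induced cells for no effect and cells given 10 µM MG132 for full effect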
# Details: ABC-DLBCL IkBa-CBG/CBR reporter, luminescence ratio (green luciferase fused to IkBa over red control in TMD8 lymphoma cells), 4 h; activity change, negative = inhibition: at 46.1 µM (top of the series) unless noted
# Summary of the method: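 TMD8 ABC-DLBCL cells carrying doxycycline-inducible green luciferase fused to IkappaBalpha plus unfused red luciferase were exposed to compounds (up to 46 uM) for 4 hrs at 37C. Activity came from the overlap-corrected green/red luminescence ratio.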
# Potency means the concentration at half of the fitted maximal effect.
SMILES,Potency,"activity change, negative = inhibition"
O=C(Nc1cccc(Cl)c1)c1cc([N+](=O)[O-])ccc1N1CCN(CCO)CC1,"inconclusive: 8.91 µM [falling, partial curve, poor fit]",–
O=C(Nc1ccc([N+](=O)[O-])cc1)c1cc2ccccc2nc1Cl,–,inconclusive: 1.95%
O=C(COc1ccc(Br)cc1)Nc1ccc(CN2CCOCC2)cc1,–,inconclusive: -8.37%
COC(=O)C1=C(C)N(Cc2ccccc2)C(=NCc2cccc(C(F)(F)F)c2)N[C@H]1c1cccc(F)c1,"inconclusive: 35.5 µM [rising, single point]",inconclusive: -12.7%
Cn1cc(CN2CC3C[C@@H]4CC2C[C@H](C3)C4)c(-c2ccc3c(c2)OCCO3)n1,–,inconclusive: 4.72%
COc1ccccc1CNC(=O)c1ccc(NS(=O)(=O)c2cccs2)cc1,–,inconclusive: -0.67%
Cc1ccccc1C(=O)N=c1c(C#N)cc2c(=O)n3cccc(C)c3nc2n1Cc1ccco1,–,inconclusive: 24.2%
CC(C)C[C@H](NC(=O)[C@@H](Cc1ccccc1)n1c(=O)[nH]c2ccccc2c1=O)C(=O)N[C@@H](Cc1ccccc1)C(=O)O,"inconclusive: 3.98 µM [falling, partial curve, poor fit]",–
CCN(CC)c1ccc2c(cc1=O)[C@@H](NC)CCc1cc(OC)c(OC)c(OC)c1-2,"inconclusive: 12.6 µM [falling, partial curve]",–
COC(=O)[C@@]1(Cc2ccccc2)[C@H]2C(=O)N(C)C(=O)[C@H]2[C@H]2CN=C(SCc3ccc(C)cc3)N21,–,inconclusive: -5.11%
COc1ccc(C(=O)n2cnc3ccccc32)cc1,–,inactive
COc1ccccc1Oc1ccc(S(=O)(=O)N2CCOCC2)cc1S(=O)(=O)N1CCOCC1,"inconclusive: 7.31 µM [falling, single point]",–
CCOC(=O)c1sc2nc(C)[nH]c(=O)c2c1C,–,inconclusive: 0.4%
C=C(C)c1cccc(C(C)(C)NC(=O)N(Cc2ccccc2)Cc2ccco2)c1,"inconclusive: 29.1 µM [rising, partial curve, poor fit]",–
COC(=O)c1c(C)[nH]c(C(=O)OCc2csc(CC(=O)Nc3ccccc3C)n2)c1C,–,inconclusive: -0.371%
Cc1ccc(C)n1-c1ccc(C(=O)/C=C/N(C)C)cc1,"inconclusive: 22.4 µM [falling, single point]",–
O=C1C(NS(=O)(=O)c2cccs2)=C(N2CCN(c3ccccc3)CC2)C(=O)c2ccccc21,–,inconclusive: 16.5%
COc1ccc(OC)c(NC(=O)c2cc(-c3cc(Cl)ccc3O)n[nH]2)c1,"inconclusive: 25.1 µM [falling, single point]",–
c1cnc(SCCOc2ccc3c(c2)CCC3)nc1,"inconclusive: 2.91 µM [rising, partial curve, poor fit]",–
CC(=O)Nc1ccc(S(=O)(=O)NCCC(=O)N2CCC(Cc3ccccc3)CC2)cc1,–,inconclusive: -6.72%
COc1ccc(C2(O)CCN(C(=O)c3c(F)cccc3F)CC2)cc1,–,inconclusive: 4.18%
Cc1ccc(-n2c(C)n[nH]c2=S)cc1,–,inactive
C(=N\C(/N=C/c1ccco1)c1ccco1)/c1ccco1,–,inactive
CS(=O)(=O)c1ccc2nc(NC(=O)CN3C(=O)NC4(CCCC4)C3=O)sc2c1,–,inactive
C=CCN1C(=O)C(Cc2ccc(OC)cc2)S/C1=N/N=C/c1ccco1 (stereo unspecified),–,inconclusive: 25.7%

SMILES,Potency,"activity change, negative = inhibition"
Cc1ccc(C)c(NC(=O)c2ccc3c(c2)N(Cc2ccc(F)cc2)C(=O)CS3=O)c1 (stereo unspecified),–,inconclusive: 15.4%
CC(/C=C1\SC(=S)N(CCC(=O)Nc2ccc(O)cc2)C1=O)=C\c1ccccc1,–,inconclusive: 16.9%
CCOC(=O)COc1ccccc1C(=O)c1cnn(-c2ccccc2)c1,"inconclusive: 10 µM [falling, partial curve, poor fit]",–
C#CCOCCOCCOCCNc1nc(N2CCOCC2)nc(N2CCN(C(=O)[C@H]([C@@H](C)CC)n3cc([C@@H](N)CC(C)C)nn3)CC2)n1,–,inconclusive: -7.86%
CN(c1ccc(C(=O)Nc2cccnc2)cc1)S(C)(=O)=O,–,inactive
C=C(C)Cn1c(N2CC(C)CC(C)C2)nc2c1c(=O)[nH]c(=O)n2C (stereo unspecified),–,inconclusive: 0.233%
COc1cccc(C2=CC(c3ccc(OC)c(OC)c3OC)n3ncnc3N2)c1 (stereo unspecified),–,inconclusive: -25.1%
COc1ccc(NC(=O)CN(C)C(=O)CCCNC(=O)c2ccc(Cl)cc2)cc1,–,inactive
O=C(CCCOc1ccc(Cl)cc1)N1CCOCC1,–,inconclusive: 11.9%
COc1ccc(CC(=O)Nc2cc(S(=O)(=O)Nc3ccc(OC)cc3)ccc2OC)cc1,–,inactive
NS(=O)(=O)c1ccc(-c2ccc(/C=C3\C(=O)Nc4cc(Cl)ccc43)o2)cc1,–,inconclusive: 0.0241%
CN(C(=O)c1ccc(F)cc1)c1ccc(OCC(=O)Nc2ccccc2C(=O)O)cc1,"inconclusive: 18.4 µM [falling, partial curve]",–
Cc1[nH]c2ccccc2c1C(c1ccccn1)N1CCC(C(N)=O)CC1 (stereo unspecified),–,inconclusive: 4.32%
Cc1nn(-c2ccccc2)c(Cl)c1CN(C(=O)CCl)c1ccc(Cl)cc1,–,inconclusive: 14.2%
COc1ccc(OCCC(=O)OCC(=O)Nc2cccc(S(=O)(=O)N3CCCCC3)c2)cc1,"inconclusive: 16.4 µM [falling, partial curve]",–
CC(C)(C)c1ccc(C(=O)Nc2nonc2-c2nc3ccccc3[nH]2)cc1,–,inconclusive: 1.89%
COC(=O)[C@H]1[C@H]2C[C@H]3c4[nH]c5ccccc5c4CCN3C[C@H]2CC[C@@H]1O,–,inactive
COc1cc(NC(=O)Cn2c(=O)oc3cc(S(=O)(=O)N4CCCCCC4)ccc32)cc(OC)c1,–,inactive
COc1ccc(C(=O)N/N=C/c2cccc3cccnc23)cc1,"inconclusive: 31.6 µM [falling, single point]",–
Cc1ccc(S(=O)(=O)NNC(=S)Nc2ccc(Cl)cc2)cc1,–,inconclusive: 12.6%
COc1ccc(-c2nnc(-c3cccnc3)o2)cc1OC,–,inactive
CCCCCCNS(=O)(=O)c1ccc(Cl)s1,–,inconclusive: 7.25%
Nc1nc(CN2CCOCC2)cs1,–,inconclusive: -9.88%
CCCc1cc(-c2nc(-c3ccc(Cl)cc3)cs2)ccn1,–,inconclusive: 1.38%
CCCOc1ccc(C(=O)c2nc3c(n2O)CCCC3)cc1,–,inconclusive: -0.388%

SMILES,Potency,"activity change, negative = inhibition"
CC(C)(C)OC(=O)NCCCC[C@H](NC(=O)c1nc[nH]c1C(=O)NC(c1ccccc1)c1ccccc1)C(=O)OC(C)(C)C,–,inactive
Cc1cccc(N=C2NN=C(c3ccccc3F)CS2)c1C,"inconclusive: 12.6 µM [falling, partial curve, poor fit]",–
Cc1cccnc1NC(=O)CCc1c[nH]c2ccccc12,"inconclusive: 10 µM [falling, partial curve, poor fit]",–
CCNS(=O)(=O)c1ccc(NC(=O)Nc2ccccc2OC)cc1,–,inconclusive: 15.8%
Cc1nc2nc(SCC(N)=O)[nH]c2cc1Br,–,inconclusive: 18.7%
O=c1c2c(nc3nc(SCc4ccccc4)[nH]n13)CCC2,"inconclusive: 3.98 µM [rising, partial curve, poor fit]",–
CCC(=O)c1c[nH]c(C(=O)NCc2ccccc2OC)c1,–,inconclusive: 1.86%
CCOC(=O)c1ccc(NC(=O)c2nc[nH]c2C(=O)NC)cc1,–,inconclusive: 3.13%
Cc1cc(C)cc(N(CC(=O)NC2CCCCC2)C(=O)CCCC(=O)Nc2ccccn2)c1,–,inconclusive: -0.943%
O=S(=O)(c1ccc2c(c1)CCN2)N1CCCC1,–,inactive
Cc1ccc(C2=NN3C(C2)c2ccccc2OC32C(=O)Nc3ccccc32)cc1 (stereo unspecified),"inconclusive: 35.5 µM [rising, single point]",–
CCN1C(=O)[C@H]2[C@@H](c3ccc(C)cc3)N3C(=O)N(c4cccc(C)c4)C(=O)[C@@]3(Cc3ccccc3)[C@H]2C1=O,–,inactive
COc1ccc(Cl)cc1NC(=O)COc1ccc2c(c1)OCO2,–,inconclusive: 0.166%
COCCOc1nc2c(c(=O)n(C)c(=O)n2C)n1CCc1ccccc1,–,inconclusive: 10.5%
CCOC(=O)c1ccc(-n2c(CN3CCC(C(N)=O)CC3)nc3ccc([N+](=O)[O-])cc3c2=O)cc1,–,inconclusive: -1.96%
COc1ccc(C(=O)Nn2c(SCC(=O)c3ccc(Cl)cc3)nc3ccccc3c2=O)cc1,"inconclusive: 11.2 µM [falling, partial curve]",–
O=C(CSCCOc1ccccc1)NCc1ccncc1,–,inactive
Cc1ccc(Cl)cc1N1CCN(C(=O)c2ccc3c(c2)CCN3S(C)(=O)=O)CC1,–,inconclusive: -28.8%
O=C(O)Cc1ccc(NC(=O)c2ccc3c(c2)C(=O)N(Cc2ccco2)C3=O)cc1,"inconclusive: 11.2 µM [falling, partial curve, poor fit]",–
CC(C)(C)c1cc(CCC(=O)N2CCNCC2)c(C(C)(C)C)cc1O,–,inconclusive: -0.857%
COc1ccc(NC(=O)CSCC(=O)Nc2cc(Cl)ccc2N2CCCC2)cc1,–,inconclusive: 0.0038%
CC1c2[nH]c3ccccc3c2CCN1C(=O)Nc1ccccc1 (stereo unspecified),"inconclusive: 18.4 µM [falling, partial curve, poor fit]",–
Cc1onc(-c2ccccc2)c1C(=O)N/N=C/c1cc(Br)c(Br)o1,–,inconclusive: -18.4%
COc1ccc(-c2c3c(nc4sc5c(Cl)nc(C)nc5c24)CCC3)cc1,–,inactive
O=C(NCc1ccccc1)c1ccc(CN(c2ccccn2)S(=O)(=O)c2ccccc2)cc1,–,inconclusive: 1.88%

# In a second layout: entries from further up
SMILES	Potency	activity change, negative = inhibition
O=C(Nc1ccc([N+](=O)[O-])cc1)c1cc2ccccc2nc1Cl	–	inconclusive: 1.95%
CC(C)C[C@H](NC(=O)[C@@H](Cc1ccccc1)n1c(=O)[nH]c2ccccc2c1=O)C(=O)N[C@@H](Cc1ccccc1)C(=O)O	inconclusive: 3.98 µM [falling, partial curve, poor fit]	–
CC(C)(C)OC(=O)NCCCC[C@H](NC(=O)c1nc[nH]c1C(=O)NC(c1ccccc1)c1ccccc1)C(=O)OC(C)(C)C	–	inactive
Cc1onc(-c2ccccc2)c1C(=O)N/N=C/c1cc(Br)c(Br)o1	–	inconclusive: -18.4%

# — PubChem BioAssay AID493014 (National Center for Advancing Translational Sciences (NCATS), 2011)
